According to patent US11806363B1, “Green synthesis of silver nanoparticles using euphorbia dendroides aqueous extract” (King Faisal University, priority 2023, dated 2023):
For at least one compound, name, drawing or mass did not settle the structure.

Test system: intestinal α-glucosidase enzyme
Assay: α-glucosidase inhibitory activity (pNPG substrate)
Type: biochemical

## C[C@H]1O[C@H](O[C@H]2[C@H](O)[C@@H](O)[C@@H](O[C@H]3[C@H](O)[C@@H](O)C(O)O[C@@H]3CO)O[C@@H]2CO)[C@H](O)[C@@H](O)[C@@H]1N[C@H]1C=C(CO)[C@@H](O)[C@H](O)[C@H]1O (some centres unmarked) [acarbose]
Highest inhibition, FIG. 4, concentration not given
  α-glucosidase inhibitory activity (% inhibition): 90.1%
triplicate, mean ±SD
  α-glucosidase IC50: 20.66 ± 1.24 µg/mL
